No constants are given. Whether binding was seen depends on the method and setting. Binding seen in cells or lysates may run through a third protein. Some results given as binding are weak or reduced against the parent protein; the word gives no strength. Where a sequence is shown, tags or fusion partners need not be part of it.
Molecular target: T1, YfgM-ALFA (C-terminally ALFA-tagged YfgM) (E. coli) (UniProt P76576)
T1 sequence: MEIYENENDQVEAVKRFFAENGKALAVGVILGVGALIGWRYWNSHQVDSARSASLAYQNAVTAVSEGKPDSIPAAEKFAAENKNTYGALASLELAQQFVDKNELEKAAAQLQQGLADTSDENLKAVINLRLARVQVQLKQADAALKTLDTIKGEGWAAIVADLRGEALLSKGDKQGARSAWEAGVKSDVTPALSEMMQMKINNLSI
Experiment: co-IP

- binding: binds
B1: PpiD (protein, UniProt P0ADY1 1-623)
chain: MMDSLRTAANSLVLKIIFGIIIVSFILTGVSGYLIGGGNNYAAKVNDQEISRGQFENAFNSERNRMQQQLGDQYSELAANEGYMKTLRQQVLNRLIDEALLDQYARELKLGISDEQVKQAIFATPAFQVDGKFDNSRYNGILNQMGMTADQYAQALRNQLTTQQLINGVAGTDFMLKGETDELAALVAQQRVVREATIDVNALAAKQPVTEQEIASYYEQNKNNFMTPEQFRVSYIKLDAATMQQPVSDADIQSYYDQHQDQFTQPQRTRYSIIQTKTEDEAKAVLDELNKGGDFAALAKEKSADIISARNGGDMGWLEDATIPDELKNAGLKEKGQLSGVIKSSVGFLIVRLDDIQPAKVKSLDEVRDDIAAKVKHEKALDAYYALQQKVSDAASNDTESLAGAEQAAGVKATQTGWFSKDNLPEELNFKPVADAIFNGGLVGENGAPGINSDIITVDGDRAFVLRISEHKPEAVKPLADVQEQVKALVQHNKAEQQAKVDAEKLLVDLKAGKGAEAMQAAGLKFGEPKTLSRSGRDPISQAAFALPLPAKDKPSYGMATDMQGNVVLLALDEVKQGSMPEDQKKAMVQGITQNNAQIVFEALMSNLRKEAKIKIGDALEQQ

Source: article doi:10.1101/640771 (bioRxiv, 2019)
